Values quoted from earlier work as cited in patent publication US8633243B2, “Forms of CDDO methyl ester” (priority 2007, dated 2014).
Some entries share one result that the patent states for a list of compounds. At least one structure is not confirmed: it was looked up by name or label, or the drawing left a doubt.

Tested on: iNOS
Conditions: Honda et al. (2000); solubilized compound; read-out: IC50, inhibition of NO production; cited from earlier work

SMILES	IC50
COC(=O)[C@]12CCC(C)(C)C[C@H]1[C@H]1C(=O)C=C3[C@@]4(C)C=C(C#N)C(=O)C(C)(C)[C@@H]4CC[C@@]3(C)[C@]1(C)CC2 [CDDO methyl ester, methyl 2-cyano-3,12-dioxoleana-1,9(11)-dien-28-oate]	< 1 nM
CC1(C)CC[C@]2(C(=O)O)CC[C@]3(C)[C@H](C(=O)C=C4[C@@]5(C)C=C(C#N)C(=O)C(C)(C)[C@@H]5CC[C@]43C)[C@@H]2C1 [CDDO, 2-cyano-3,12-dioxoleana-1,9(11)-dien-28-oate]	< 1 nM
